The values that follow come from patent publication US5547962A, “5-amino-8-methyl-7-pyrrolidinylquinoline-3-carboxylic acid derivative” (priority 1993, dated 1996).

Molecules are shown by their SMILES.

The test system of the data set is Male Hartley guinea pigs. It counts as in vivo. Particulars: 10 mg/kg i.v., UVA 90 minutes, 24 h after irradiation. On the procedure: Male Hartley guinea pigs were intravenously administered test compounds at a dose of 10 mg/kg, and immediately exposed to UVA on their backs for 90 minutes. Erythemas on the backs were observed 24 h after UVA irradiation.

As to `O=C(O)c1cn(C2CC2)c2cc(N3CCNCC3)c(F)cc2c1=O` [Ciprofloxacin, ciprofloxacin], the “Phototoxicity: number of animals with erythemas/number of animals tested” value is given as 3/5.
